Results on two substances are retold here after paper PMC6773851, “Identification of protein-protein and ribonucleoprotein complexes containing Hfq” (Scientific Reports, 2019).

By UniProt entry, the sequences of proteins in these tests, tags left out. Where a name states a change or a piece, a line headed by the entry shows the natural chain unless it says otherwise.
UniProt P0CE47: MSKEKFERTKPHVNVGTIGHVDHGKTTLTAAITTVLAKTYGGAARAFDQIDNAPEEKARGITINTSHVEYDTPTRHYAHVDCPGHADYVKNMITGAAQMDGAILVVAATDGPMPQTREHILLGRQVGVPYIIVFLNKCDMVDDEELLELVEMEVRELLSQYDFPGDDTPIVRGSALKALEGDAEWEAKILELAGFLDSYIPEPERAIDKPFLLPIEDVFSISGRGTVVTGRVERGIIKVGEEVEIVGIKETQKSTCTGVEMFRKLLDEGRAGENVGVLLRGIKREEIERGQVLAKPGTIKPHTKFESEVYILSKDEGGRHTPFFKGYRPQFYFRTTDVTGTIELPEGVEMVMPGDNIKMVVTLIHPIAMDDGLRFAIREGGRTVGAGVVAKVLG
UniProt P0A6X3: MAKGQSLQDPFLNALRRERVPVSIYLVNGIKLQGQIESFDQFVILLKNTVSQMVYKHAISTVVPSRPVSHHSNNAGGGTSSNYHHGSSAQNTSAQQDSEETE

Results are given in words; binding and its absence hold for the method and conditions named. Binding can be weak; no strength is given. For some assays here: Binding seen in cells or lysates may run through a third protein.

Assay [1] has as its target His-tagged EF-Tu (purified) (E. coli) (UniProt P0CE47). Put plainly: far-Western, overlay or dot blot; purified proteins on 12.5% SDS-PAGE, blotted to nitrocellulose, denatured with guanidine-HCl and renatured, incubated overnight at 4 °C with 20 µg purified Hfq in 20 ml protein-binding buffer; bound Hfq detected with an anti-Hfq polyclonal antibody; both purified.
Assay [2] addresses HfqH6 (His6-tagged Hfq expressed from pHfqH6) (E. coli) (UniProt P0A6X3). The experiment in a line: cross-linking; in vivo, 0.25 mM DSP in PBS, 1 h at 37 °C, late exponential phase; HfqH6 complexes enriched on Ni-Agarose; with or without 50 mM DTT; SDS-PAGE, 24 gel slices analysed by mass spectrometry; no RNase A treatment.

Consider “Ec-HfqHis6 (purified) (from UniProt P0A6X3 1-102)”, for which the binding result in assay [1] is recorded as “binds weakly”. As to “Elongation Factor Tu (from UniProt P0CE47)”, in assay [2], the binding entry is listed as “binds”.
